Results deposited as PubChem BioAssay AID686937 (Drosophila RNAi Screening Center, 2013).
The screen tested about 23,000 reagents; this is a random part of those with a known target gene and a result. 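Reduced-secretion tags in replicate 1 do not always agree with the z-scores; no criterion for assigning the tags was given.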 A plus sign joins genes that one reagent is predicted to hit. Not given: the amount of reagent.

Purpose: 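Genes whose loss weakens secretory pathway function in fly cells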 (primary screen)
Cell system: Drosophila S2 cells expressing secreted horseradish peroxidase
Reagents: long dsRNA against Drosophila genes
Timing: about 5.5 days (5 days dsRNA, then 12 h reporter induction)
Conditions: reporter expression induced after 5 days of dsRNA, read 12 h later; inducer not stated
Read-out: 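Chemiluminescent measurement of peroxidase in the medium 12 h after reporter induction, following 5 days of dsRNA, given as a z-score per plate; higher means more secretion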
Scale: z-score: higher = more reporter secreted into medium

no.	target	dsRNA	z-score, replicate 1	z-score, replicate 2	z-score, replicate 3	z-score, replicate 4	phenotype, replicate 1
1	olf186-M	DRSC07657	-0.72	0.26			
2	Pgant1 (Polypeptide N-Acetylgalactosaminyltransferase 1)	DRSC07095	0.36	-0.01			
3	CG7860	DRSC20060	0.33	0.31			
4	CG7130	DRSC11797	0.42	0.25			
5	CG10912	DRSC06009	0.26	0.2			
6	eIF4A (eukaryotic translation initiation factor 4A)	DRSC03526	-6.41	-4.84			reduced secretion
7	CG33255 (retired record) + CR42842 + hpRNA:CR32205 + 1 more	DRSC09617	0.4	0.51			
8	CG34435	DRSC18086	0.56	0.63			
9	ifc (infertile crescent)	DRSC03549	0.39	0.46			
10	CG9394	DRSC04550	0.01	0.19			
11	Nsf2 (N-ethylmaleimide-sensitive factor 2)	DRSC22104	0.51	0.34			
12	NimB5 (Nimrod B5)	DRSC01885	0.23	0.17			
13	mthl8 (methuselah-like 8)	DRSC08211	0.36	0.15			
14	mthl8 (methuselah-like 8)	DRSC08311	0.44	0.25			
15	CG43367	DRSC08299	0.26	0.29			
16	CG43367	DRSC08301	0.06	0.24			
17	CG43367	DRSC08309	-0.59	-0.07			
18	Ude (Uracil-DNA degrading factor)	DRSC15324	0.43	0.42			
19	Argp (Arginine phosphatase)	DRSC16510	0.16	0.72			
20	Ork1 (Open rectifier K[+] channel 1)	DRSC20266	-0.05	0.17			
21	CG13946	DRSC00364	0.19	0.34			
22	Grl65a (Gustatory receptor-like 65a)	DRSC08837	0.56	0.43			
23	Dus1 (Dihydrouridine synthase 1)	DRSC00623	0.21	0			
24	Tsr1 (Tsr1 ribosome assembly factor)	DRSC11821	0.17	0.16			
25	Dhps (Deoxyhypusine synthase)	DRSC10948	0.15	-0.13			
26	CG3032	DRSC18266	0.39	0.35			
27	dpr14 (defective proboscis extension response 14)	DRSC17767	0.23	0.16			
28	CG3492	DRSC04373	0.11	0.43			
29	CG42367	DRSC21388	0	-0.12			
30	CG14443	DRSC17936	0.31	0.57			
31	CCT7 (Chaperonin containing TCP1 subunit 7)	DRSC16410	-0.16	-1.39			
32	CG9072	DRSC20147	0.4	0.41			
33	CG32568	DRSC19913	0.16	0.29			
34	CG17721	DRSC15253	0.33	-0.24			
35	CG18596	DRSC15355	0.15	0.15			
36	CG31636	DRSC02276	0.02	0.14			
37	CG13016	DRSC06271	0.38	0			
38	Ipp (Inositol polyphosphate 1-phosphatase)	DRSC16718	0.56	0.3			
39	CG15210	DRSC19656	0.5	0.56			
40	CG43109	DRSC05754	0.34	0.29			
41	glob2 (globin 2)	DRSC12560	0.22	-0.15			
42	Nubp1 (NUBP iron-sulfur cluster assembly factor 1)	DRSC02639	0.2	0.26			
43	tbrd-3	DRSC04295	-0.23	-0.22			
44	CG7166	DRSC11809	0.14	0.24			
45	CG42322	DRSC15112	0.42	0.43			
46	CG42322	DRSC15113	0.1	0.37			
47	CG42322	DRSC15114	-1.54	0.07			reduced secretion
48	CG7341	DRSC10818	0.42	0.28			
49	ND-B17 (NADH dehydrogenase (ubiquinone) B17 subunit)	DRSC01981	-0.09	-0.04			
50	CG9447	DRSC05008	0.31	0.22			
51	GV1	DRSC08228	0.28	0.33			
52	Vps16A (Vacuolar protein sorting 16A)	DRSC16422	0.2	-0.03			
53	CG13814 (retired record)	DRSC10069	0.44	0.68			
54	fs(2)ltoPP43 (female sterile (2) ltoPP43)	DRSC02067	-0.03	0			

Part of the list above in another layout.
target,dsRNA,"z-score, replicate 1","z-score, replicate 2","z-score, replicate 3","z-score, replicate 4","phenotype, replicate 1"
CG13016,DRSC06271,0.38,0,,,
Ipp (Inositol polyphosphate 1-phosphatase),DRSC16718,0.56,0.3,,,
CG15210,DRSC19656,0.5,0.56,,,
CG43109,DRSC05754,0.34,0.29,,,
glob2 (globin 2),DRSC12560,0.22,-0.15,,,
Nubp1 (NUBP iron-sulfur cluster assembly factor 1),DRSC02639,0.2,0.26,,,
tbrd-3,DRSC04295,-0.23,-0.22,,,
CG7166,DRSC11809,0.14,0.24,,,
CG42322,DRSC15112,0.42,0.43,,,
CG42322,DRSC15113,0.1,0.37,,,
CG42322,DRSC15114,-1.54,0.07,,,reduced secretion

Continued:
no.	target	dsRNA	z-score, replicate 1	z-score, replicate 2	z-score, replicate 3	z-score, replicate 4	phenotype, replicate 1
55	CG34304 (retired record)	DRSC12810	0.31	0.08			
56	r (rudimentary)	DRSC19813	-0.55	-0.86			
57	r (rudimentary)	DRSC19814	-0.53	-0.75			
58	CG14406	DRSC19592	0.31	0.28			
59	crm (cramped)	DRSC18754	0.62	0.63	-0.1	-0.9	
60	Uch-L5 (Ubiquitin carboxy-terminal hydrolase L5)	DRSC11314	0.33	0.22			
61	CG33454	DRSC22914	0.02	-0.48			
62	CG33919	DRSC04940	0.32				
63	CCDC151 (Coiled-coil domain containing protein 151)	DRSC10131	0.3	0.28			
64	CG6403	DRSC16033	0.5	0.69			
65	CG15767	DRSC18073	0.24	-0.16			
66	hwt (heavyweight)	DRSC19386	-1.75	0.14			
67	hwt (heavyweight)	DRSC19695	0.47	0.69			
68	CG43068	DRSC05538	0.13	-0.17			
69	dgrn (degringolade)	DRSC12154	0.28	0.42			
70	Cyp6d2 (Cytochrome P450 6d2)	DRSC04606	-3.14	0.25	0.39	-1.67	
71	HtrA2 (HTRA2-related serine protease)	DRSC16425	0.07	0.36			
72	Sirt4 (Sirtuin 4)	DRSC18290	0.28	0.09			
73	dome (domeless)	DRSC19583	-0.04	0.09			
74	Trap1	DRSC05019	0.11	0.43			
75	Gpo3 (Glycerophosphate oxidase 3)	DRSC01978	0.53	0.29			
76	glu (gluon)	DRSC03539	0.18	0.03			
77	CG6785	DRSC02993	0.44	0.38			
78	CG31827 + CG18478	DRSC01958	0.11	0.25			
79	Tom7 (Translocase of outer membrane 7)	DRSC05135	-0.16				
80	Tom7 (Translocase of outer membrane 7)	DRSC07113	0.34	0.22			
81	Idgf5 (Imaginal disc growth factor 5)	DRSC06919	-0.65	-0.34			
82	CG13386	DRSC02260	0.14	0.22			
